From the supplement of paper PMC11006884
This list holds what a sample rich in targets with a hit left over. Single values of this set are uncertain. The list shows a part of the results, in another mix than the full data.

Amino acid sequences for entries named in this document (tags omitted). A change or cut given only in a name is not applied to a line headed by its entry.
UniProt Q6UB35, whole entry, looked up: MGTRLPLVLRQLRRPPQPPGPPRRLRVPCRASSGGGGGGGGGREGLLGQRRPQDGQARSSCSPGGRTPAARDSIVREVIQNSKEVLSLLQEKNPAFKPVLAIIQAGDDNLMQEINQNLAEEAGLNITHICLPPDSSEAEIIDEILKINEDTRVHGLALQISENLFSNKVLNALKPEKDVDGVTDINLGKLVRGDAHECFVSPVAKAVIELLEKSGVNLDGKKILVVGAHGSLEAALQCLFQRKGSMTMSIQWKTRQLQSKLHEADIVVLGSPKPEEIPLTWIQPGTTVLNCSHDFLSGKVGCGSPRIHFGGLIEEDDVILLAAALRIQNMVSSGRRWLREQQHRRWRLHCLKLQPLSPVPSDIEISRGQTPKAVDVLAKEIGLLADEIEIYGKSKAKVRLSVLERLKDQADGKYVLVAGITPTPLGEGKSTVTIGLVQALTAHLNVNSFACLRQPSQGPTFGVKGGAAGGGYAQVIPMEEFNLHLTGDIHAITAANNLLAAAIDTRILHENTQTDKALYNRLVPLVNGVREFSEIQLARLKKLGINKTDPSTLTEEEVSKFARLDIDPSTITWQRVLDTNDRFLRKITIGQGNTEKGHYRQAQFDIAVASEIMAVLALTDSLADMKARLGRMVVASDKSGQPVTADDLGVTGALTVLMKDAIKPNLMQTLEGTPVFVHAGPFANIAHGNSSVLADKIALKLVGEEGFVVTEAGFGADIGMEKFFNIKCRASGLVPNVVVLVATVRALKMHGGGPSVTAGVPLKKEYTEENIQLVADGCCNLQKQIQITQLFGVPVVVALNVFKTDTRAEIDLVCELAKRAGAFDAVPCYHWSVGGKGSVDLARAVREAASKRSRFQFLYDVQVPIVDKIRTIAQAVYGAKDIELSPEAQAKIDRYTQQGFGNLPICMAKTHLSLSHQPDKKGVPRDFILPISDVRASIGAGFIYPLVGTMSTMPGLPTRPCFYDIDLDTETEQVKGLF
UniProt Q6IA69: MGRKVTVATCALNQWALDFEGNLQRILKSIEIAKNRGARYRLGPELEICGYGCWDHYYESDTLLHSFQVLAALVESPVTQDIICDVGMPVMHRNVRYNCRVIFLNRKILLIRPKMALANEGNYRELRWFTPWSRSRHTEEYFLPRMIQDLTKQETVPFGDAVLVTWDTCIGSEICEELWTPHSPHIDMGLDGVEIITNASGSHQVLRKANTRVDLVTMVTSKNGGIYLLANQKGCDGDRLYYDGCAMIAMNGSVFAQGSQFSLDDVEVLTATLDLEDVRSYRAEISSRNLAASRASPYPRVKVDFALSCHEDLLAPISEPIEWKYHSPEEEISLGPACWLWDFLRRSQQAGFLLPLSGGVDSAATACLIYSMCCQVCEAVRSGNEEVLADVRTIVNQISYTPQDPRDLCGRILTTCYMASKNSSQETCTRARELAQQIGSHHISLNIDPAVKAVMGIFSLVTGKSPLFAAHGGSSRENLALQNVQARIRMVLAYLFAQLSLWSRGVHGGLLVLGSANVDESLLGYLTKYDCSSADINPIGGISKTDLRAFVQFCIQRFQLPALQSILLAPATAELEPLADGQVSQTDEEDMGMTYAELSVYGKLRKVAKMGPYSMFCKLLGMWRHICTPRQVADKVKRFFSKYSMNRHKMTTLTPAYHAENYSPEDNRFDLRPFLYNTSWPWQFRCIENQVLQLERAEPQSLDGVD
UniProt Q5VUA4: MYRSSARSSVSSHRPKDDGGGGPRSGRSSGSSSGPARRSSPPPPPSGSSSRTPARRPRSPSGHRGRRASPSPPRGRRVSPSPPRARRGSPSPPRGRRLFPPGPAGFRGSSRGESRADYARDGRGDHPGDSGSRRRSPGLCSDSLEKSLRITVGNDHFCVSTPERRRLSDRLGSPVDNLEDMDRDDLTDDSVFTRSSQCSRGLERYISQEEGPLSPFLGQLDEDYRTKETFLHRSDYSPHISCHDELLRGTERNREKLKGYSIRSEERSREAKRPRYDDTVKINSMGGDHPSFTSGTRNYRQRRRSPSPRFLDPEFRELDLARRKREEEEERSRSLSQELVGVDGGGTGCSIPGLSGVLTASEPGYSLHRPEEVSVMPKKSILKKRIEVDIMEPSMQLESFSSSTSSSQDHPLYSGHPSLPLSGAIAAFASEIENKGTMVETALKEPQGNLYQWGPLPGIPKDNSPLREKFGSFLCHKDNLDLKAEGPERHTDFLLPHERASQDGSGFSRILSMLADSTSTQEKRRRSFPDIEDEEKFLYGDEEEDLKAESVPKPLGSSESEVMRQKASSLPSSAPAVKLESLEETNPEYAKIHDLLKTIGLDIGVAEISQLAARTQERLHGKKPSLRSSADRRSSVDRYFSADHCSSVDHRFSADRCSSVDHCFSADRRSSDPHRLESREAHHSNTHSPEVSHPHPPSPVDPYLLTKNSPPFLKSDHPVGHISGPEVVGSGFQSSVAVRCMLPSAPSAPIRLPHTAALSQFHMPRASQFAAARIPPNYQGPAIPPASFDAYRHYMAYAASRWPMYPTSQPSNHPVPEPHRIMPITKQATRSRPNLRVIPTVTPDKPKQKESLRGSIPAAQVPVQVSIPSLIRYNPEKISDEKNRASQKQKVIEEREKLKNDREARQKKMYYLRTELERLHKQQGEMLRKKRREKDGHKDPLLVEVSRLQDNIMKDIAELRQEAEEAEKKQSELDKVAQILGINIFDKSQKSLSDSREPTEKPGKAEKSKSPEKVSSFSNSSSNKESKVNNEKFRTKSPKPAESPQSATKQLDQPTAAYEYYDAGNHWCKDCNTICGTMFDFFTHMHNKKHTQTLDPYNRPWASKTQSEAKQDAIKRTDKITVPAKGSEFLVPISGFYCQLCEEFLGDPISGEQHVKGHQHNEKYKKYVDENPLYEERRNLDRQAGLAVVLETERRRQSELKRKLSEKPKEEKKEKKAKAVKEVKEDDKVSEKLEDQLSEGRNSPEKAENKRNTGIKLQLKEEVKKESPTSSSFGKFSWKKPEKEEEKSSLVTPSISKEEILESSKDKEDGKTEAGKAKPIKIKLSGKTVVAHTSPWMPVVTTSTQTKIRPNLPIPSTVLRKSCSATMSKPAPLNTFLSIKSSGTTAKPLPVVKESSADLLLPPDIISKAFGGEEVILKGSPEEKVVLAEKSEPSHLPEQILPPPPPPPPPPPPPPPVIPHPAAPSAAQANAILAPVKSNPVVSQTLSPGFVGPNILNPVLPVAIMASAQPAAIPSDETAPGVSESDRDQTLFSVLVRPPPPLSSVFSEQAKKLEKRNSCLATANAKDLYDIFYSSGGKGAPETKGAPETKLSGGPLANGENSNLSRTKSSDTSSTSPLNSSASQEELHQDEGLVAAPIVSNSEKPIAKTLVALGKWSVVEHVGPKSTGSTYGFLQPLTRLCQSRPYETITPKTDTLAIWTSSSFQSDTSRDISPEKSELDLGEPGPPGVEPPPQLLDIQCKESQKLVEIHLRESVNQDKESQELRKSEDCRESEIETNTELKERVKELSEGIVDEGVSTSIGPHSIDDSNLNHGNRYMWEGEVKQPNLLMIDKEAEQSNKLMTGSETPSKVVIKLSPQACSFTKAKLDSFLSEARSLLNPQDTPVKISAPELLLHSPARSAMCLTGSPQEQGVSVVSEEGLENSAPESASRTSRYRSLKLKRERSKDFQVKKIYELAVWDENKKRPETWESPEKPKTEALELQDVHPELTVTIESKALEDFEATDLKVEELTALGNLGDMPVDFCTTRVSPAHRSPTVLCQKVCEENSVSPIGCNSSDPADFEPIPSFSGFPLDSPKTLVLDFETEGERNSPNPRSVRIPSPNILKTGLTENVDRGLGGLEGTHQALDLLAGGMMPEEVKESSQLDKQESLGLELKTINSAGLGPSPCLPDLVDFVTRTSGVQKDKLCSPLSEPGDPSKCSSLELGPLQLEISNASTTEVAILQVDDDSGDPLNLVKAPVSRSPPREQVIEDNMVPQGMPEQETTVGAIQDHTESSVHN
UniProt Q5VTE6: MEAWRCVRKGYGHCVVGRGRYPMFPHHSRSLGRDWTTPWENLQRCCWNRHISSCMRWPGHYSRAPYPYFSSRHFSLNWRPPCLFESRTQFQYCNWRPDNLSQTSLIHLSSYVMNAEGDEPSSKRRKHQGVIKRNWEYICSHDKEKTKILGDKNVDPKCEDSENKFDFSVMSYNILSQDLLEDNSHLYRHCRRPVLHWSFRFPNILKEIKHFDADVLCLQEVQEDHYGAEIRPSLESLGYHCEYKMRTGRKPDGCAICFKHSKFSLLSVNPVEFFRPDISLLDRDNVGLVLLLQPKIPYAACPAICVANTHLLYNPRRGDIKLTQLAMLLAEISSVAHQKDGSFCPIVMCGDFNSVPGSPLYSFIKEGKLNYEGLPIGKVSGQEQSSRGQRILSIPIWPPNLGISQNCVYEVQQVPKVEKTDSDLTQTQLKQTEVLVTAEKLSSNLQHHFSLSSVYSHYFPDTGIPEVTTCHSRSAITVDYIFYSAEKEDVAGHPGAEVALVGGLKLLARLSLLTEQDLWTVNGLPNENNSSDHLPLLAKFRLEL
UniProt Q5TAX3: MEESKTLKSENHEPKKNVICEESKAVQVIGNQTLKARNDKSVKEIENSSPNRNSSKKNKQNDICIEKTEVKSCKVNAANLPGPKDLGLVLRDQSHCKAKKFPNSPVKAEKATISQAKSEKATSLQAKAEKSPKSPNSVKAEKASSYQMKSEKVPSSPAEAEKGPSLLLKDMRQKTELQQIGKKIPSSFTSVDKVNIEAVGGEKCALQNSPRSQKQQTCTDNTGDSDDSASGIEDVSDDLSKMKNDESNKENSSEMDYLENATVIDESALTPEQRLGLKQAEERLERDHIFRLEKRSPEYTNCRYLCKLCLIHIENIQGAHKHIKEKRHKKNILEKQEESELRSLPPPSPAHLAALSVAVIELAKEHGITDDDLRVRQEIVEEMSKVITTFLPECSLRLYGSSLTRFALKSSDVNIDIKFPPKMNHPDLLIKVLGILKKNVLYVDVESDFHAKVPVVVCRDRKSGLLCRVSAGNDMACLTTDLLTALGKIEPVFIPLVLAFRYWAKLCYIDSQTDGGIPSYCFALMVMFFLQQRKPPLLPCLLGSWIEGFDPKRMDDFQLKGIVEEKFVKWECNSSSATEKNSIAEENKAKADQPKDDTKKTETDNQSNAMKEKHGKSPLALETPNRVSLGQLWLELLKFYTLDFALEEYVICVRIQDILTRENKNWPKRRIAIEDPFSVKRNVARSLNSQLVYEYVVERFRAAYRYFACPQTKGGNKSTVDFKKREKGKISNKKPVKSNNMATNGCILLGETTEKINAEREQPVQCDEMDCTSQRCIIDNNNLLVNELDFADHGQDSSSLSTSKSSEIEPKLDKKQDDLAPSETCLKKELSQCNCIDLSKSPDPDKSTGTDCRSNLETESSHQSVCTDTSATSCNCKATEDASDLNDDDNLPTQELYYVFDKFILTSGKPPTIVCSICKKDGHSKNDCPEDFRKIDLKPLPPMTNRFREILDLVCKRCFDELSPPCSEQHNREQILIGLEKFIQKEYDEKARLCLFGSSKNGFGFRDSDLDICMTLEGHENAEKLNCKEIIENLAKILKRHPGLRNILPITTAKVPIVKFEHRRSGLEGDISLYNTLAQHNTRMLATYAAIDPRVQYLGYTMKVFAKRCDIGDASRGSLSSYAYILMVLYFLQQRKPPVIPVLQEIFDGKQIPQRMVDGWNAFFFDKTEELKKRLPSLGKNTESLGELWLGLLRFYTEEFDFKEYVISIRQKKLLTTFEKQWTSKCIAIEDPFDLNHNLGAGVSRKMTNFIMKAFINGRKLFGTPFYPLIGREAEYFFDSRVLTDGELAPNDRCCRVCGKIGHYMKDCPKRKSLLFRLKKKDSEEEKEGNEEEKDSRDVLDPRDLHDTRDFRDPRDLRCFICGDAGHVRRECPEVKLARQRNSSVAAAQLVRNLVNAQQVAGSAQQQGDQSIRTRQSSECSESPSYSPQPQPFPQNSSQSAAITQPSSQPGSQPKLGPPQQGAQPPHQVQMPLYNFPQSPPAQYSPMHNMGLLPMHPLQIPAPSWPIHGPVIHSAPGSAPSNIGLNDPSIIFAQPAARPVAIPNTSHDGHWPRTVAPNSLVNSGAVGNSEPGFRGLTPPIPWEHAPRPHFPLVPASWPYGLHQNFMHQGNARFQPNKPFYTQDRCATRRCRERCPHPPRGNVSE
UniProt Q6P6C2: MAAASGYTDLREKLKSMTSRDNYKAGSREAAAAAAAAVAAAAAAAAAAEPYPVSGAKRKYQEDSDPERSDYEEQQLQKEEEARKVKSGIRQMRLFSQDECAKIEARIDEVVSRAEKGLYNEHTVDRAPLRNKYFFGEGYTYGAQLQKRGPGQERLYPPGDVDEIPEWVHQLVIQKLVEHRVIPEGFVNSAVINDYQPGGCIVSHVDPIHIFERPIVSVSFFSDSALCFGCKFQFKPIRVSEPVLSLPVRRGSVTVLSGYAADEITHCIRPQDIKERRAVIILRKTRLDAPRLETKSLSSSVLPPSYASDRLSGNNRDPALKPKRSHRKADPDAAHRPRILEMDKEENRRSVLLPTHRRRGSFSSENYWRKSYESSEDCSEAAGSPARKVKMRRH

Each target was assayed with COC(=O)/C=C/c1ccccc1 [methyl cinnamate] (assay: log2 ratio of iodoacetamide-alkyne labeling of the cysteine site, DMSO over compound (competition); higher = stronger covalent engagement of the cysteine by the compound, active = 1 or more). Conditions: 500 µM; treatment time 1 h; system: HEK293T cell lysate.
Summary of the method: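 HEK293T lysate (2 mg/mL) was treated with DMSO or electrophile (500 µM, 1 h, ambient temperature), then iodoacetamide alkyne (1 h), clicked to sCIP-TMT reagents, pooled, trypsin-digested overnight at 37 °C, streptavidin-enriched and acid-eluted. Peptides were run on Orbitrap Eclipse LC-MS/MS with FAIMS and quantified in FragPipe. The log2 competition ratio per cysteine is mean control-channel over mean compound-channel reporter intensity. Duplicate channels and three replicates were used, and cysteines quantified in only one replicate were excluded.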

log2 ratio of iodoacetamide-alkyne labeling, inactive:
EXOSC6 C117 (UniProt Q5RKV6) 0.00507
NIPBL C1795 (UniProt Q6KC79) -0.291
MTHFD1L C828 (UniProt Q6UB35) -0.0577
DENND4C C115 (UniProt Q5VZ89) -0.0198
TWF2 C141 (UniProt Q6IBS0) 0.222
UniProt Q5W0B1_C321 0.424
UniProt Q712K3_C191 0.201
MAP1S C51 (UniProt Q66K74) 0.28
MIA3 C1486 (UniProt Q5JRA6) 0.194
NADSYN1 C428 (UniProt Q6IA69) 0.136
MTHFD1L C906 (UniProt Q6UB35) -0.0412
ARID2 C1549 (UniProt Q68CP9) 0.265
ZC3H13 C1666 (UniProt Q5T200) 0.307
CEP350 C179 (UniProt Q5VT06) 0.252
RAB11FIP1 C1192 (UniProt Q6WKZ4) -0.0498
C15orf39 C367 (UniProt Q6ZRI6) 0.503
THADA C144 (UniProt Q6YHU6) 0.159
ZNF318 C1559 (UniProt Q5VUA4) 0.113
ANGEL2 C158 (UniProt Q5VTE6) -0.176
ZC3H14 C707 (UniProt Q6PJT7) -0.316
ZMYM4 C1264 (UniProt Q5VZL5) 0.302
UniProt Q5TAX3_C1226 0.103
FBXL19 C142 (UniProt Q6PCT2) -0.0295
UniProt Q5FBB7_C44 -0.0616
NT5DC1 C63 (UniProt Q5TFE4) 0.279
UniProt Q5T280_C239 0.0309
SPECC1 C740 (UniProt Q5M775) -0.0187
UniProt Q5TEU4_C199 0.289
ALKBH5 C378 (UniProt Q6P6C2) 0.418
MTHFD1L C291 (UniProt Q6UB35) 0.0528
RIF1 C1077 (UniProt Q5UIP0) 0.294
AARS2 C300 (UniProt Q5JTZ9) 0.00283
TBC1D9B C444 (UniProt Q66K14) 0.26
ZNF318 C1903 (UniProt Q5VUA4) 0.567
UniProt Q5TAX3_C776 0.354
FBXL19 C145 (UniProt Q6PCT2) 0.0749
UniProt Q5H9R7_C467 -0.00292
TRIM65 C500 (UniProt Q6PJ69) 0.0817

A stretch from further up, as a working copy:
log2 ratio of iodoacetamide-alkyne labeling, inactive:
RAB11FIP1 C1192 (UniProt Q6WKZ4) -0.0498
C15orf39 C367 (UniProt Q6ZRI6) 0.503
THADA C144 (UniProt Q6YHU6) 0.159
ZNF318 C1559 (UniProt Q5VUA4) 0.113
ANGEL2 C158 (UniProt Q5VTE6) -0.176
ZC3H14 C707 (UniProt Q6PJT7) -0.316
ZMYM4 C1264 (UniProt Q5VZL5) 0.302
UniProt Q5TAX3_C1226 0.103
